Experimental data taken from paper PMC6451123, “The G3-U70-independent tRNA recognition by human mitochondrial alanyl-tRNA synthetase” (Nucleic Acids Research, 2019).
These are yes or no findings as the source states them, for the method shown. Tags and fused reporters may be left off the sequences shown.

Molecular target: mature mouse mtAlaRS (Ser26-Leu980) with a C-terminal His6-tag (mouse) (UniProt Q14CH7)
Experiment: SEC; gel filtration of the purified enzyme; apparent molecular mass from the elution volumes of three standard proteins (apoferritin 443 kDa, yeast alcohol dehydrogenase 150 kDa, bovine serum albumin 66 kDa); both purified

- binding: no binding
B1: mature mouse mtAlaRS (Ser26-Leu980) with a C-terminal His6-tag (enzyme, UniProt Q14CH7 26-980)
chain: STEPGPPHGAAVRDAFLSFFRDRHGHRLVPSATVRPRGDPSLLFVNAGMNQFKPIFLGTVDPRSEMAGFRRVVNSQKCVRAGGRHNDLEDVGRDLSHHTFFEMLGNWAFGGEYFKEEACSMAWELLTQVYGIPEDRLWVSYFSGDSQTGLDPDLETRDIWLSLGVPASRVLSFGPQENFWEMGDTGPCGPCTEIHYDLAGGVGSPQLVELWNLVFMQHYREADGSLQLLPQRHVDTGMGLERLVAVLQGKRSTYDTDLFSPLLDAIHQSCGAPPYSGRVGAADEGRIDTAYRVVADHIRTLSVCIADGVSPGMSGAPLVLRRILRRAVRYSTEVLQAPPGFLGSLVPVVVETLGSAYPELEKNSVKIASLVSEDEAAFLASLQRGRRIIDRTVKRLGPSDLFPAEVAWSLSLSGNLGIPLDLVELMLEEKGVKLDTAGLEQLAQKEAQHRAQQAEADQEDRLCLDVHALEELHRQGIPTTDDSPKYNYTLHPNGDYEFGLCEARVLQLYSETGTAVASVGAGQRCGLLLDRTNFYAEQGGQASDRGYLVRTGQQDMLFPVAGAQLCGGFILHEAMAPERLQVGDQVQLYVDKAWRMGCMVKHTATHLLSWALRQTLGPTTEQRGSHLNPERLRFDVATQTLLTTEQLRTVESYVQEVVGQDKPVFMEEVPLAHTARIPGLRSLDEVYPDPVRVVSVGVPVAHALGPASQAAMHTSVELCCGTHLLSTGAVGDLVIIGERQLVKGITRLLAITGEQAQQAREVGQSLSQEVEAASERLSQGSRDLPEAHRLSKDIGRLTEVAESAVIPQWQRQELQTTLKMLQRRANTAIRKLEKGQATEKSQELLKRHSEGPLIVDTVSAESLSVLVKVVRQLCKQAPSISVLLLSPQPTGSVLCACQVAQDATPTFTAEAWALAVCSHMGGKAWGSRVVAQGTGHTADLEAALGTARAYALSQL
